Laboratory results reported in PubChem BioAssay AID493014 (National Center for Advancing Translational Sciences (NCATS), 2011).
In all, about 340,000 compounds went through this assay and about 170 (0.05%) were called active. Inconclusive results, whose numbers are uncertain, are shown with a selection of clear calls. The call rests on the fitted dose curve; in most records, active means well fitted inhibition curve with a large enough effect in the signal ratio, with a control signal flat (not every such curve was filed as active); inconclusive means small, poorly fitted or top-dose-only effect, or effect the other way, or a change in a side signal; inactive means flat fitted curve, though single readings scatter; the % refers to the signal ratio. Potencies of inconclusive entries are doubtful fits and often do not repeat.
Potency means the concentration at half of the fitted maximal effect.

Experiment: qHTS Assay to Find Inhibitors of Chronic Active B-Cell Receptor Signaling;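 on activity change, negative = inhibition: plate controls were basal doxycycline-induced cells for no effect and cells given 10 µM MG132 for full effect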
Conditions: ABC-DLBCL IkBa-CBG/CBR reporter, luminescence ratio (green luciferase fused to IkBa over red control in TMD8 lymphoma cells), 4 h; activity change, negative = inhibition: at 46.1 µM (top of the series)
Summary of the method: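 TMD8 ABC-DLBCL cells carrying doxycycline-inducible green luciferase fused to IkappaBalpha plus unfused red luciferase were exposed to compounds (up to 46 uM) for 4 hrs at 37C. Activity came from the overlap-corrected green/red luminescence ratio.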
With `CCOC(=O)C1CN(S(=O)(=O)c2cccs2)c2ccc(CC(=O)OC)cc2O1` (stereo unspecified) the “activity change, negative = inhibition” value was inactive: 8.58%.
In the case of `O=C(NNC(=O)c1ccco1)c1csc(N2CCOCC2)n1`, the activity change, negative = inhibition is reported as inconclusive: -7.17%.
With `NS(=O)(=O)c1ccc(N2N=C(c3ccccc3)CC2c2ccccc2Br)cc1` (stereo unspecified) the “activity change, negative = inhibition” value was inactive: 5.7%.
For `CCCc1nnc(NC(=O)c2ccncc2)s1`, the Potency was inconclusive: 31.6 µM [falling, single point].
For `CCN(CC)c1ccc(C(=O)OCC(=O)Nc2sccc2C#N)cc1`, the activity change, negative = inhibition was inconclusive: 4.84%.
With `Cc1cc(/C([O-])=C(/C(=S)Nc2ccc(F)cc2)[n+]2ccccc2)c(C)n1-c1ccc(F)cc1` the Potency was inconclusive: 10 µM [falling, partial curve, poor fit].
For `COc1ccc(/C=C(/NC(=O)c2ccccc2)C(=O)N2CCOCC2)cc1OC`, the Potency was inconclusive: 15.8 µM [falling, partial curve, poor fit].
With `CCC1CCCCN1CCCNC(=O)c1ccc(N2CCCC2=O)cc1` (stereo unspecified) the “activity change, negative = inhibition” value was inactive: -2.99%.
For `COC(=O)c1ccc(-n2c(C)cc(C(=O)CSc3cccc[n+]3[O-])c2C)cc1`, the “activity change, negative = inhibition” value was inactive: 0.339%.
In the case of `COc1ccc(-n2cc(-c3ccccc3)c3c(NC4CCCC4)ncnc32)cc1`, the activity change, negative = inhibition is reported as inconclusive: 8.76%.
For `CC(=O)Nc1ccc(S(=O)(=O)NCCC(=O)Nc2ccc(C)c(Cl)c2)cc1`, the activity change, negative = inhibition was inconclusive: -10.6%.
For `CCC(C)(C)c1ccc(OCCN2C(=O)NC(C)(C)C2=O)cc1`, the “activity change, negative = inhibition” value was inactive: 3.05%.
With `CC(C)CC(=O)N1CCN(Cc2ccccc2[N+](=O)[O-])CC1` the “activity change, negative = inhibition” value was inactive: -1.19%.
In the case of `CCOC(=O)C1=C(c2ccccc2)O/C(=C(\C(=O)OC)C(F)(F)F)S1`, the “activity change, negative = inhibition” value is reported as inactive: 20.9%.
In the case of `O=C(O)c1cccc2c1C(=O)c1ccccc1-2`, the Potency is reported as inconclusive: 15.8 µM [rising, single point].
For `CC[C@]1(O)C[C@@H]2CN(CCc3c([nH]c4ccccc34)[C@@](C(=O)OC)(c3cc4c(cc3OC)N(C)[C@H]3[C@@](O)(C(=O)OC)[C@H](OC(C)=O)[C@]5(CC)C=CCN6CC[C@]43[C@@H]65)C2)C1`, the Potency was inconclusive: 0.1 µM [falling, full curve, poor fit].
In the case of `Cc1ccc(-c2nnc(NCc3nc4ccccc4[nH]3)c3ccccc23)cc1S(=O)(=O)N1CCCCC1`, the activity change, negative = inhibition is reported as inconclusive: -2.48%.
With `CC(C)CN(CC(C)C)C(=O)CN1C(=O)NC2(CCc3ccccc3C2)C1=O` (stereo unspecified) the activity change, negative = inhibition was inconclusive: 1.16%.
With `Cc1cc(C)cc(NC(=O)CSc2nc(=O)n(Cc3ccccn3)c3c2CCC3)c1` the activity change, negative = inhibition was inconclusive: -16.4%.
For `C/C=C(\C)C(=O)N1CC2(CC(c3cccc(NC(=O)COc4ccc(Cl)cc4)c3)=NO2)C[C@@H]1C(N)=O` (stereo partly specified), the Potency was inconclusive: 10 µM [falling, partial curve].
With `Nc1nnc(CCN2C(=O)CSC2=O)s1` the activity change, negative = inhibition was inconclusive: -10.4%.
For `Cc1cccc(C)c1NC(=S)N/N=C/c1c(Cl)cccc1Cl`, the “activity change, negative = inhibition” value was inactive: -0.737%.
In the case of `CSc1ccccc1NC(=O)CN(C)C(=O)c1ccc(NC(=O)c2cccs2)cc1`, the “activity change, negative = inhibition” value is reported as inactive: 4.87%.
With `COc1ccc(Cc2nc3ccc(C(=O)NCCn4cccn4)cc3o2)cc1` the activity change, negative = inhibition was inconclusive: 1.82%.
For `Cc1ccc(N(CC(O)CN2CCCCC2)S(=O)(=O)c2ccccc2)cc1` (stereo unspecified), the activity change, negative = inhibition was inconclusive: -18.3%.
With `COc1ccccc1NC(=O)CON=C(N)CC(=O)NC1CCCCC1` the Potency was inconclusive: 18.4 µM [falling, single point].
For `Cc1ccc(Cl)cc1NC(=S)N/N=C/c1cccc2ccccc12`, the Potency was inconclusive: 0.562 µM [falling, partial curve, poor fit].
For `CCOC(=O)CNC(=O)c1ccc(Br)s1`, the activity change, negative = inhibition was inconclusive: 11.1%.
With `COC(=O)c1c(NC(=O)COC(=O)CCNS(=O)(=O)c2ccc(NC(C)=O)cc2)sc(C)c1C` the activity change, negative = inhibition was inconclusive: -1.96%.
With `O=C1C(c2ccnc3ccccc23)=C(O)c2ccccc21` the “activity change, negative = inhibition” value was inactive: -1.85%.
With `COc1cccc(/C=N/NC(=O)c2cc3cc([N+](=O)[O-])ccc3s2)c1O` the activity change, negative = inhibition was inconclusive: -19.8%.
With `O=C1C(=C(O)c2ccccc2)C(=O)c2ccccc21` the activity change, negative = inhibition was inconclusive: -8.17%.
For `NCC(c1ccc(Cl)cc1Cl)c1c[nH]c2ccccc12` (stereo unspecified), the activity change, negative = inhibition was inconclusive: -12.9%.
For `O=C1C2=C(Nc3ccccc3SC2c2ccco2)c2ccccc21` (stereo unspecified), the activity change, negative = inhibition was inconclusive: 7.88%.
For `O=C(N/N=C/C(Cl)=C\c1ccccc1)c1cnccn1`, the Potency was inconclusive: 29.1 µM [falling, single point].
In the case of `CC(=O)Nc1ccc(OCCCNC(=O)c2c(-c3ccccc3)noc2C)cc1`, the Potency is reported as inconclusive: 35.5 µM [falling, partial curve, poor fit].
In the case of `c1ccc(CCN2CCN=C2Nc2ccccc2)cc1`, the activity change, negative = inhibition is reported as inconclusive: 0.814%.
In the case of `COC(=O)c1ccc(C23CC4(C2)[C@H](CN(Cc2cccnc2)[C@@H]4c2ccccc2)C3c2ccc(Cl)nc2)cc1` (stereo partly specified), the activity change, negative = inhibition is reported as inconclusive: -4.65%.
For `CCCOc1ccc(N2CC(C(=O)NC3=NCCS3)CC2=O)cc1` (stereo unspecified), the “activity change, negative = inhibition” value was inactive: -6.03%.
In the case of `CCc1ccc(N(CC(=O)NC)S(C)(=O)=O)cc1`, the activity change, negative = inhibition is reported as inconclusive: -0.688%.
With `COc1ccccc1CNc1nccn(-c2ccccc2)c1=O` the Potency was inconclusive: 35.5 µM [rising, single point].
For `CCC(Oc1ccc(Br)cc1Cl)C(=O)Nc1nnc(C2CC2)s1` (stereo unspecified), the activity change, negative = inhibition was inconclusive: -11.5%.
In the case of `Cc1ccc2[nH]cc(CCNC(=O)c3ccc4c(c3)OCO4)c2c1`, the activity change, negative = inhibition is reported as inconclusive: -17.5%.
In the case of `Cc1ccc2c(c1)c(-c1csc(N)n1)c(C)n2C`, the Potency is reported as inconclusive: 6.31 µM [falling, partial curve, poor fit].
In the case of `COc1ccc(NC(=S)NN2CCN(C)CC2)cc1OC`, the activity change, negative = inhibition is reported as inconclusive: -6.86%.
For `Cc1ccc(Nc2nc3c(s2)CCC3)c(C)c1`, the Potency was inconclusive: 5.8 µM [falling, partial curve].
For `c1ccc2c(c1)OCCOCCOCCOCCOc1ccccc1OCCOCCOCCO2`, the “activity change, negative = inhibition” value was inactive: -0.314%.
For `CN(C)c1nc(N(C)C)nc(N(C#N)CCOc2ccccc2)n1`, the Potency was inconclusive: 0.58 µM [rising, full curve].
For `C=CCNCCOCCOc1ccccc1-c1ccccc1`, the activity change, negative = inhibition was inconclusive: -10.7%.
With `O=C(O)c1ccc(/C=C2\COc3ccccc3C2=O)cc1` the activity change, negative = inhibition was inconclusive: 25.4%.
With `COc1ccccc1CNC(=O)c1cnn2c(C(F)F)cc(C)nc12` the “activity change, negative = inhibition” value was inactive: 17.3%.
In the case of `COc1ccc(N2CC(NC(=O)COc3ccc4ccccc4c3)CC2=O)cc1OC` (stereo unspecified), the “activity change, negative = inhibition” value is reported as inactive: -12.3%.
With `Cc1ccc(NC(=O)CN2CCCC2)c2c1CC(C)(C)O2` the Potency was inconclusive: 3.55 µM [falling, partial curve, poor fit].
In the case of `Cc1ccc(C=C2C(=O)c3ccccc3C2=O)s1`, the “activity change, negative = inhibition” value is reported as inactive: -12.7%.
With `N#Cc1sc2nc3c(c(-c4ccco4)c2c1N)CCCC3` the “activity change, negative = inhibition” value was inactive: -0.426%.
With `Cc1cc(OCC(=O)N2CCc3ccccc3C2)c(C)cc1Br` the activity change, negative = inhibition was inconclusive: -17.1%.
With `Cc1ccc(C2CC(=O)NC3=C2C(=O)CCC3)cc1Br` (stereo unspecified) the activity change, negative = inhibition was inconclusive: -9.49%.
In the case of `O=[N+]([O-])c1ccc(CNCc2cc(Cl)ccc2O)cc1`, the activity change, negative = inhibition is reported as inconclusive: -1.3%.
With `Cc1cc(C(=O)N2CCN(c3cccc(Cl)c3)CC2)c(C)o1` the Potency was inconclusive: 29.1 µM [falling, single point].
For `Cc1nc(NCCN2CCOCC2)c2nnn(Cc3ccccc3Cl)c2n1`, the activity change, negative = inhibition was inconclusive: 13.9%.
In the case of `COc1ccc(OC)c(C(=O)NC(CC(N)=O)c2ccc(NCCOc3ccccc3)c([N+](=O)[O-])c2)c1` (stereo unspecified), the “activity change, negative = inhibition” value is reported as inactive: -4.45%.
In the case of `CC(N)C12CC3CC(C1)CC(C(C)N)(C3)C2` (stereo unspecified), the Potency is reported as inconclusive: 4.61 µM [falling, single point].
With `CC(C)NC(=O)c1ccc(COc2ccc(C(C)(C)C)cc2)o1` the activity change, negative = inhibition was inconclusive: -6.89%.
With `O=[N+]([O-])c1cccc(-c2ccc(/C=N/Nc3nc(N4CCCCC4)nc(N4CCCCC4)n3)o2)c1` the “activity change, negative = inhibition” value was inactive: 3.04%.
In the case of `CCOc1ccccc1NC(=O)c1c(NCc2sccc2C)sc2c1CCC(C)C2` (stereo unspecified), the Potency is reported as inconclusive: 22.4 µM [falling, partial curve].
In the case of `CCOc1ccc2nc(N/C(N)=N/S(C)(=O)=O)nc(C)c2c1`, the activity change, negative = inhibition is reported as inconclusive: 5.44%.
For `Oc1ccc(/C=N/Nc2nc(N3CCCC3)nc(N3CCCC3)n2)cc1O`, the activity change, negative = inhibition was inconclusive: -137%.
For `Cc1ccccc1N1CCN(C(=O)C2CCC(=O)N(C3CCCC3)C2)CC1` (stereo unspecified), the “activity change, negative = inhibition” value was inactive: 0.341%.
For `O=C(NCc1ccccc1)c1csc2c1CCCCC2`, the Potency was inconclusive: 4.61 µM [rising, full curve, poor fit].
In the case of `O=C(Nc1ccc(Cl)cc1)N1CCC(c2ccccc2)C1` (stereo unspecified), the Potency is reported as inconclusive: 31.6 µM [rising, partial curve] and the activity change, negative = inhibition is reported as inconclusive: 291%.
In the case of `Cc1cc(OCC(=O)NC2CCN(Cc3ccccc3)CC2)c2c(C)c(C)c(=O)oc2c1`, the “activity change, negative = inhibition” value is reported as inactive: 0.299%.
In the case of `O=C(Nc1ccc(Br)cc1)c1cccc(N2C(=O)C3C4C=CC(C4)C3C2=O)c1` (stereo unspecified), the Potency is reported as inconclusive: 35.5 µM [falling, single point].
In the case of `CC1Cc2ccccc2N1C(=O)CSc1ncc(-c2ccc(F)cc2)n1C` (stereo unspecified), the activity change, negative = inhibition is reported as inconclusive: -23.3%.
With `c1ccc2c(Nc3ccc4c(c3)OCCO4)c3c(nc2c1)CCCC3` the activity change, negative = inhibition was inconclusive: -24.5%.
In the case of `O=C(CN1C(=O)C(=O)N(C2CCCC2)C1=O)NCCc1ccc(Cl)cc1Cl`, the activity change, negative = inhibition is reported as inconclusive: 9.74%.
For `CCOC(=O)c1c(NC(=O)c2ccccc2C(=O)O)sc2c1CCCC2`, the “activity change, negative = inhibition” value was inactive: 5.6%.
In the case of `Cc1ccc(-c2noc(CSc3nnc(Cc4cccs4)n3-c3ccccc3)n2)cc1`, the activity change, negative = inhibition is reported as inconclusive: 13.1%.
In the case of `Cc1cc2c(=O)n(C)c(SCC(=O)c3cc4ccccc4o3)nc2s1`, the activity change, negative = inhibition is reported as inconclusive: 13.7%.
With `Cc1[nH]c2ccccc2c1/C=N/NC(=O)c1cccc(F)c1` the Potency was inconclusive: 35.5 µM [falling, single point].
With `CCOc1ccccc1OCCCC(=O)NNC(=O)c1cc(C)oc1C` the “activity change, negative = inhibition” value was inactive: -3.48%.
